Laboratory results taken from PMC10403854.

Sequences of proteins named here, by UniProt entry; tags and fusion partners are left off. Residues count along the entry.
UniProt Q13586, residues 23-685: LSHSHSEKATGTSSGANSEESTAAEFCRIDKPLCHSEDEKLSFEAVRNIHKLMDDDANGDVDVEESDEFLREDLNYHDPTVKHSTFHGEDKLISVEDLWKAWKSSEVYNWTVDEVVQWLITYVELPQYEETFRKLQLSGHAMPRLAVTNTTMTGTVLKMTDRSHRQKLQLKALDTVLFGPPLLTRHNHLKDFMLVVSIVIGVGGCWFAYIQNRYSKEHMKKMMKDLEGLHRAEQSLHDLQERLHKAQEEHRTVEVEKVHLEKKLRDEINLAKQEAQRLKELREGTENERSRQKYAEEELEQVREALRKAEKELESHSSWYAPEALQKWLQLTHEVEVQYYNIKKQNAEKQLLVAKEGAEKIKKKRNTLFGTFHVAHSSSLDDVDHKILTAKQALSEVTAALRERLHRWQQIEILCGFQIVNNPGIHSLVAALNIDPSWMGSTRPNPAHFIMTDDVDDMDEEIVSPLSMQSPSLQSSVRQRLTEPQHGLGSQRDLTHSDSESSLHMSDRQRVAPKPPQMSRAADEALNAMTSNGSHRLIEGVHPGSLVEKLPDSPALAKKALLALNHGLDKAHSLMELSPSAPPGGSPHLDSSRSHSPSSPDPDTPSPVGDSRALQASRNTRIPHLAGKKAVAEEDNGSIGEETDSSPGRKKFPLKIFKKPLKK
UniProt Q13049: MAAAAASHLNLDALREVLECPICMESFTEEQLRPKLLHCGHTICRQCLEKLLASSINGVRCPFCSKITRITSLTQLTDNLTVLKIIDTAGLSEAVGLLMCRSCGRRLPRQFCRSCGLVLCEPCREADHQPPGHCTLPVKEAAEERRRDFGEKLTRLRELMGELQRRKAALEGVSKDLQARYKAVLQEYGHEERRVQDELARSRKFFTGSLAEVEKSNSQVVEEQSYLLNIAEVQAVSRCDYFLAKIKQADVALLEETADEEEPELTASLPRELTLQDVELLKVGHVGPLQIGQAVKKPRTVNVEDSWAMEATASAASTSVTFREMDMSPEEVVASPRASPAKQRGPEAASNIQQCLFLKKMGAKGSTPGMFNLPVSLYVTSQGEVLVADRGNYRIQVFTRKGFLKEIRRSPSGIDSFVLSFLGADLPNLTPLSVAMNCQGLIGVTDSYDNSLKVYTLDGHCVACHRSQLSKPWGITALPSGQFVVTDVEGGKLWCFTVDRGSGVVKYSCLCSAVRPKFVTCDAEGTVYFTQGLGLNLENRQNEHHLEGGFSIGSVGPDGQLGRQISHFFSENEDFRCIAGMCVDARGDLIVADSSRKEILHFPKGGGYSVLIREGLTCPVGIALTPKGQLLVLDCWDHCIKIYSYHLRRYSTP

How the values were obtained:
[1] = target: stromal interaction molecule 1 (STIM1), endogenous (human (endogenous in DU145 and PC-3)) (UniProt Q13586); test: affinity purification with mass spectrometry; STIM1 immunoprecipitated from whole-cell lysate; a ~30 kDa band and the immune complexes analysed by mass spectrometry; cells not given
[2] = target: stromal interaction molecule 1 (STIM1), endogenous (human (endogenous in DU145 and PC-3)) (UniProt Q13586); test: as above; remark: listed apart in the source

| binding [1] | binding [2] | Molecule |
| --- | --- | --- |
| binds | – | tripartite motif containing 32 (TRIM32), endogenous (from UniProt Q13049 1-653) (enzyme) |
| – | binds | tetraspanin 18 (TSPAN18), endogenous (protein, UniProt Q96SJ8 1-248) MEGDCLSCMKYLMFVFNFFIFLGGACLLAIGIWVMVDPTGFREIVAANPLLLTGAYILLAMGGLLFLLGFLGCCGAVRENKCLLLFFFLFILIIFLAELSAAILAFIFRENLTREFFTKELTKHYQGNNDTDVFSATWNSVMITFGCCGVNGPEDFKFASVFRLLTLDSEEVPEACCRREPQSRDGVLLSREECLLGRSLFLNKQGCYTVILNTFETYVYLAGALAIGVLAIELFAMIFAMCLFRGIQ |

Like-named read-outs stand apart in the source and are kept apart here. No constants are given. Whether binding was seen depends on the method and setting. In cells and extracts the contact can be indirect. Here binding means that the protein was enriched with, or labelled near, the bait; the list need not be complete.
